Data taken from patent publication US10071103B2, “Treatments for resistant acne” (VYOME BIOSCIENCES PVT. LTD., priority 2014, dated 2018).
At least one compound was matched to its structure with a doubt left.

Tested on: P. acnes clinical isolates
Experiment: MIC of P. acnes isolated from acne patients (clinical isolates);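 note: anaerobic 96-well plate assay at 37 °C over 72 h, with Alamar blue dye as read-out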

`CN(C)c1ccc(O)c2c1C[C@H]1C[C@H]3[C@H](N(C)C)C(O)=C(C(N)=O)C(=O)[C@@]3(O)C(O)=C1C2=O` [Minocycline, minocycline] was tested. Which “Susceptibility of clinical isolates susceptible to clindamycin and erythromycin (in words)” value did it give?
Its value is “susceptible”.
